Laboratory results as given in PubChem BioAssay AID2417 (National Center for Advancing Translational Sciences (NCATS), 2010).
Hit rate of the full screen: of about 140,000 compounds, about 4,300 (3.1%) were called active. Inconclusive results, whose numbers are uncertain, are shown with a selection of clear calls.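 Rule for the calls: active = readout at or below -70, meaning at least 70% loss of cells showing the perinucleolar compartment, a nuclear body marking cancer cells; inconclusive = readout between -30 and a set limit; inactive = the rest.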

Test: High Content Assay for Compounds that inhibit the Assembly of the Perinucleolar Compartment;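 note: plate controls were DMSO wells for no effect and camptothecin positive control wells for full effect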
Details: PC3M PTB-GFP, PNC prevalence imaging, 16 h; at 10 µM; active compounds read low
Outline: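 Read-out is percentage of cells bearing a perinucleolar compartment, from automated 20x imaging of fixed, Hoechst-stained PC3M PTB-GFP cells. Cells were seeded 4 h, then exposed 16 h to compound (23 nl of library stock) in duplicate plates.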

Row | SMILES | activity change (PNC), negative = inhibition
1 | Cc1cc([N+](=O)[O-])cc(C)c1OCC(=O)N/N=C/c1ccc(OC(=O)c2ccccc2)cc1 | active: -100%
2 | Cn1cnc(C(F)(F)F)c1-c1ccc([N+](=O)[O-])cc1 | inconclusive: -48.1%
3 | Cc1cc(C)cc(-n2nnc(C(=O)NCc3ccc4c(c3)OCO4)c2N)c1 | inconclusive: -68.8%
4 | CCOC(=O)CNC(=O)CSc1nc(NCc2ccccc2)nc(N(C)C)n1 | inconclusive: -76.1%
5 | CN(C)S(=O)(=O)Nc1ccc2c(c1)Cc1ccccc1-2 | inactive: -12%
6 | O=C(CSc1nnc(-c2c[nH]c3ccccc23)o1)N1CCCCC1 | inactive: -29.9%
7 | COc1ccc(OCc2cn3c(C)cc(C)nc3n2)cc1 | inconclusive: -64.8%
8 | CCC(CO)NC(=O)c1ccc(-c2nn(C)c(=O)c3ccccc23)cc1 (stereo not drawn) | inactive: -11.6%
9 | Cc1cc(C(=O)N/N=C/c2cccc([N+](=O)[O-])c2)c(C)o1 | inconclusive: -38.3%
10 | CCOC(=O)N/N=C/c1ccc(N(CC)CC)cc1O | inactive: 1.99%
11 | Cc1sc(NC(=O)Cn2c(=O)oc3ccccc32)nc1-c1ccc(Cl)cc1 | inactive: 14.5%
12 | O=C(c1cnccn1)N1CCN(S(=O)(=O)c2ccc3ccccc3c2)CC1 | inactive: 17.7%
13 | COc1cccc(C2(O)CCN(C(=O)C3CC3)CC2)c1 | inactive: 13.2%
14 | O=C(NC1=C(Nc2ccc(Cl)cc2)C(=O)c2ccccc2C1=O)c1ccccc1 | inactive: 24.3%
15 | COc1ccc(Cn2nnnc2C(c2ccncc2)N2CCOCC2)cc1 (stereo not drawn) | active: -99.5%
16 | CCOc1ccc(S(=O)(=O)N2CCC(C(N)=O)CC2)c2ccccc12 | inconclusive: -34.2%
17 | O=C(O)CCCCCn1c(SCC(=O)c2ccc(O)c(O)c2)nc2ccsc2c1=O | inconclusive: -41.8%
18 | Cc1cc(N2CCN(c3ccccn3)CC2)n2c(nc3ccccc32)c1C#N | inconclusive: -46.9%
19 | Cc1c(NC(=O)C(C)Sc2nc3ccccc3c(=O)n2CCO)c(=O)n(-c2ccccc2)n1C (stereo not drawn) | inconclusive: -53.3%
20 | CC(=O)Oc1ccc2c(c1)C(=O)c1ccccc1CO2 | inactive: 27.5%

Row | SMILES | activity change (PNC), negative = inhibition
21 | CCOc1ccc(NC2=NCC(=O)N2CCc2ccccc2)cc1 | inconclusive: -63.8%
22 | O=C(c1ccc(F)cc1)[C@@H]1[C@@H](C(=O)c2ccccc2)[C@@]2(C(=O)Nc3ccccc32)[C@H]2c3ccccc3C=CN12 | inactive: -5.19%
23 | Cn1c(-c2ccc(F)cc2)cnc1SCC(=O)N1CCCCC1 | inactive: -19%
24 | COc1ccc(NC(=O)CC2C(=O)N(c3cccc(OC)c3)C(=O)N2C2CCCCC2)cc1 (stereo not drawn) | inactive: 48.7%
25 | CC(CCN(C)C)OC(=O)c1ccc(C(C)c2ccccc2)o1 (stereo not drawn) | active: -107%
26 | Clc1ccccc1Cn1nnc(-c2cccs2)n1 | inactive: 0.911%
27 | CC(C)CCNC(=O)C1CCN(c2nc3ccccc3o2)CC1 | inconclusive: -33.8%
28 | Cc1ccc(-n2c(CCC(=O)O)ccc2-c2cccs2)cc1 | inconclusive: -62.3%
29 | COc1ccc(C(=O)Nc2ccc3c(c2)OCO3)cc1OC | inactive: 5.14%
30 | COc1ccc(-c2nc(-c3cccc(C)c3)[nH]c(=O)c2C#N)cc1 | inconclusive: -45.3%
31 | COc1cc(C(=O)Oc2cc(C)[nH]c(=O)c2[N+](=O)[O-])cc(OC)c1OC | inconclusive: -64.7%
32 | CC(NC(=O)C(=O)NN=C1CCCCCCC1)c1ccccc1 (stereo not drawn) | inconclusive: -37.9%
33 | COc1ccccc1C(=O)Nc1ccc(S(=O)(=O)Nc2cc(C)nc(C)n2)cc1 | inconclusive: -40.7%
34 | COc1ccccc1C1NC(=O)NC(C)=C1C(C)=O (stereo not drawn) | inconclusive: -54%
35 | Cc1ccc(C(=O)OCC(=O)NCC(F)(F)F)cc1C | inactive: 39.2%
36 | CCC(=O)Oc1ccc(-c2nc(-c3cccnc3)no2)cc1 | inconclusive: -54%
37 | O=C(NC1CC1)c1ccc(-c2nc3ccccc3s2)s1 | inconclusive: -35.4%
38 | COc1ccccc1Oc1coc2cc(OC(=O)N3CCOCC3)ccc2c1=O | inconclusive: -46.8%
39 | COc1cccc(C(=O)NCc2nnc(SCC(=O)Nc3nccs3)n2-c2cccc(C)c2)c1 | inconclusive: -52.9%
40 | CC(C)c1onc(C(=O)N(C)Cc2ccccc2)c1[N+](=O)[O-] | inactive: -1.14%

Row | SMILES | activity change (PNC), negative = inhibition
41 | Cc1n[nH]c(=S)n1/N=C/c1ccc(OCc2ccc(Cl)cc2)cc1 | inactive: 17.2%
42 | CCN(CC)S(=O)(=O)c1ccc(C(=O)Nc2nnc(C(C)C)s2)cc1 | inconclusive: -58.6%
43 | CCOC(=O)c1c(NC(=O)COC(=O)c2c(C)noc2C)sc2c1CCC2 | inactive: 92.5%
44 | O=C(CSCc1ccccc1)N/N=C/c1ccccc1OCc1ccccc1 | inconclusive: -47%
45 | Cc1[nH]c2ccccc2c1Cc1nnc(SCC(N)=O)o1 | inconclusive: -44.7%
46 | Cc1cc(-c2ccccc2)nc(N/N=C/c2ccc([N+](=O)[O-])cc2)n1 | inconclusive: -35.8%
47 | Cc1cccc(NC(=S)NCc2ccc(F)cc2)c1 | inactive: -8.63%
48 | O=C(OCC1COc2ccccc2O1)c1c(F)cccc1F (stereo not drawn) | inconclusive: -39%
49 | Cc1ccc(NC(=O)c2cc(C)n(-c3ccccc3)c2C)cc1 | inconclusive: -66.2%
50 | Cc1ccc(NC(=O)Cn2c(CCC(=O)O)ccc2-c2cccs2)cc1 | inconclusive: -36.1%
51 | Cc1ccc(S(=O)(=O)N(C)/N=C/C=C/c2ccccc2)cc1 | inactive: 13.6%
52 | Cc1nc(NCc2ccco2)c2c(C)c(C)sc2n1 | inactive: 17.8%
53 | CCOC(=O)c1[nH]c(C)c(C(=O)NCCc2ccc(OC)cc2)c1C | inconclusive: -32.2%
54 | COC(=O)c1cc(C)sc1NC(=O)c1cccnc1 | inconclusive: -30.1%
55 | COCC(=O)N(C)C1(c2nnnn2CCOC(=O)Nc2cccc3ccccc23)CCCC1 | inconclusive: -52%
56 | O=C(C1CCN(S(=O)(=O)c2ccc(F)cc2)CC1)N1CC=C(c2ccccc2)CC1 | inactive: -10.1%
57 | CSc1ccc(S(=O)(=O)NC2CCCCCC2)cc1 | inconclusive: -46.8%
58 | Cc1ccc(NCc2nnc(SCC(=O)NCCc3ccccc3)n2C)cc1 | inconclusive: -56.1%

Arranged by molar mass (low to high): part of the list above
Row | SMILES | activity change (PNC), negative = inhibition
35 | Cc1ccc(C(=O)OCC(=O)NCC(F)(F)F)cc1C | inactive: 39.2%
28 | Cc1ccc(-n2c(CCC(=O)O)ccc2-c2cccs2)cc1 | inconclusive: -62.3%
43 | CCOC(=O)c1c(NC(=O)COC(=O)c2c(C)noc2C)sc2c1CCC2 | inactive: 92.5%
